Measurements reported in PubChem BioAssay AID1508597 (Cure First, 2020).
Test: 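Survival screen with siRNA in ovarian cancer cells derived from patients, with or without rucaparib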 (primary screen). Cell system: human ovarian carcinoma lines grown from tumours: OCI-P5x (papillary serous) and OCI-C5x (clear cell). Reagent: siRNA pool against human genes, 1.25 pmol siRNA per well. Timing: 72 h or 96 h, depending on the cell culture. Treatment: rucaparib 20 µM (about IC30) or vehicle, present until read-out. Rucaparib or vehicle: Vehicle. Cell line: OCI-P5x (serous). Read-out: 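Luminescent ATP-based viability assay read 72 or 96 h after transfection, depending on culture, given as normalised percent viability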. Direction: viability, normalised: higher = more viable cells remaining. Call rule: 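a well counts as a hit if its normalised viability is under 80 percent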. Meaning of the calls: active = viability under 80%; inactive = viability 80% or more.
Shown is a random part of the about 2,100 reagents, under one of the conditions tested. 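Calls flag viability under 80% in either arm, not effects specific to rucaparib; the reference for percent is not stated.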 A reagent listed more than once was tested more than once; the source does not tell the runs apart. No sequences are given here. The record does not give: the 100% reference.

{"gene": "PRMT6", "technical replicate": "1", "viability, normalised (%)": 49.1, "Outcome": "active"}
{"gene": "PRMT6", "technical replicate": "2", "viability, normalised (%)": 55.8, "Outcome": "active"}
{"gene": "PRMT6", "technical replicate": "3", "viability, normalised (%)": 82.3, "Outcome": "inactive"}
{"gene": "ZAP70", "technical replicate": "1", "viability, normalised (%)": 105, "Outcome": "inactive"}
{"gene": "ZAP70", "technical replicate": "2", "viability, normalised (%)": 75.3, "Outcome": "active"}
{"gene": "ZAP70", "technical replicate": "3", "viability, normalised (%)": 81, "Outcome": "inactive"}
{"gene": "MRGBP", "technical replicate": "1", "viability, normalised (%)": 47.3, "Outcome": "active"}
{"gene": "MRGBP", "technical replicate": "2", "viability, normalised (%)": 47.9, "Outcome": "active"}
{"gene": "MRGBP", "technical replicate": "3", "viability, normalised (%)": 67.4, "Outcome": "active"}
{"gene": "PINK1", "technical replicate": "1", "viability, normalised (%)": 89.8, "Outcome": "inactive"}
{"gene": "PINK1", "technical replicate": "2", "viability, normalised (%)": 78, "Outcome": "active"}
{"gene": "PINK1", "technical replicate": "3", "viability, normalised (%)": 83.7, "Outcome": "inactive"}
{"gene": "H2AX", "technical replicate": "1", "viability, normalised (%)": 54.8, "Outcome": "active"}
{"gene": "H2AX", "technical replicate": "2", "viability, normalised (%)": 54, "Outcome": "active"}
{"gene": "H2AX", "technical replicate": "3", "viability, normalised (%)": 50.6, "Outcome": "active"}
{"gene": "MPP1", "technical replicate": "1", "viability, normalised (%)": 85, "Outcome": "inactive"}
{"gene": "MPP1", "technical replicate": "2", "viability, normalised (%)": 76.7, "Outcome": "active"}
{"gene": "MPP1", "technical replicate": "3", "viability, normalised (%)": 72.2, "Outcome": "active"}
{"gene": "TOP3A", "technical replicate": "1", "viability, normalised (%)": 74.6, "Outcome": "active"}
{"gene": "TOP3A", "technical replicate": "2", "viability, normalised (%)": 88.7, "Outcome": "inactive"}
{"gene": "TOP3A", "technical replicate": "3", "viability, normalised (%)": 82, "Outcome": "inactive"}
{"gene": "CAMK1", "technical replicate": "1", "viability, normalised (%)": 94.6, "Outcome": "inactive"}
{"gene": "CAMK1", "technical replicate": "2", "viability, normalised (%)": 99.4, "Outcome": "inactive"}
{"gene": "CAMK1", "technical replicate": "3", "viability, normalised (%)": 85.3, "Outcome": "inactive"}
{"gene": "MSH6", "technical replicate": "1", "viability, normalised (%)": 90.3, "Outcome": "inactive"}
{"gene": "MSH6", "technical replicate": "1", "viability, normalised (%)": 58.8, "Outcome": "active"}
{"gene": "MSH6", "technical replicate": "2", "viability, normalised (%)": 61.5, "Outcome": "active"}
{"gene": "MSH6", "technical replicate": "2", "viability, normalised (%)": 105, "Outcome": "inactive"}
{"gene": "MSH6", "technical replicate": "3", "viability, normalised (%)": 106, "Outcome": "inactive"}
{"gene": "MSH6", "technical replicate": "3", "viability, normalised (%)": 66.9, "Outcome": "active"}
{"gene": "PDCD10", "technical replicate": "1", "viability, normalised (%)": 89.2, "Outcome": "inactive"}
{"gene": "PDCD10", "technical replicate": "2", "viability, normalised (%)": 92.3, "Outcome": "inactive"}
{"gene": "PDCD10", "technical replicate": "3", "viability, normalised (%)": 74.3, "Outcome": "active"}
{"gene": "SBK1", "technical replicate": "1", "viability, normalised (%)": 76.4, "Outcome": "active"}
{"gene": "SBK1", "technical replicate": "2", "viability, normalised (%)": 74.7, "Outcome": "active"}
{"gene": "SBK1", "technical replicate": "3", "viability, normalised (%)": 80.4, "Outcome": "inactive"}
{"gene": "RBKS", "technical replicate": "1", "viability, normalised (%)": 73.9, "Outcome": "active"}
{"gene": "RBKS", "technical replicate": "2", "viability, normalised (%)": 59.2, "Outcome": "active"}
{"gene": "RBKS", "technical replicate": "3", "viability, normalised (%)": 76.8, "Outcome": "active"}
{"gene": "NEIL3", "technical replicate": "1", "viability, normalised (%)": 62.1, "Outcome": "active"}
{"gene": "NEIL3", "technical replicate": "2", "viability, normalised (%)": 60.9, "Outcome": "active"}
{"gene": "NEIL3", "technical replicate": "3", "viability, normalised (%)": 56.6, "Outcome": "active"}
